These are literature values, as cited in patent publication US20170210810A1, “BIOMARKER PROFILES FOR PREDICTING OUTCOMES OF CANCER THERAPY WITH ERBB3 INHIBITORS AND/OR CHEMOTHERAPIES” (Merrimack Pharmaceuticals, Inc., priority 2013, published 2017).

The conditions of the series: cited from earlier work.

Regarding `CC(=O)O[C@H]1C(=O)[C@@]2(C)[C@H]([C@H](OC(=O)c3ccccc3)[C@]3(O)C[C@H](OC(=O)[C@H](O)[C@@H](NC(=O)c4ccccc4)c4ccccc4)C(C)=C1C3(C)C)[C@]1(OC(C)=O)CO[C@@H]1C[C@@H]2O` [paclitaxel, Paclitaxel, reference compound], the solubility in water result is listed as “insoluble”.
